At least one structure is not confirmed: it was looked up by name or label, or the drawing left a doubt. Starred links: 1 amine or outer side, 2 acyl side, 3 side chain; linkers in the order of their positions; H or OH if unused. Positions of bridges follow the written chain, without caps; N, C: chain ends. Non-standard residues stand in square brackets, D forms with d. Residues, ends and D or L forms follow the SMILES beside them. *: point of attachment. X20 = CCCCCCCCCCCCCCCC(=O)N[C@@H](CCC(=O)NCCOCCOC(=O)NCCOCCOC(=O)*)C(=O)O; Trp(5-F) = N[C@@H](Cc1c[nH]c2ccc(F)cc12)C(=O)O; mXylylene = c1cc(C[*:1])cc(C[*:2])c1; αMeP = C[C@@]1(C(=O)O)CCCN1; Mpa = O=C(O)CCS
What was measured:
PCSK9 [1] = biological target: T1, PCSK9 (Homo sapiens (Human), UniProt Q8NBP7); experiment: PCSK9 Alexa FRET Standard assay (displacement of AlexaFluor647 tagged cyclic peptide Reagent A); type: binding; settings: 0.5 nM PCSK9, 20 nM AF cyclic peptide Reagent A
Procedure: A solution containing 1 nM biotinylated PCSK9+2.5 nM Lance Streptavidin Europium (Strep-Eu) was made in 50 mM HEPES pH 7.4, 0.15 M NaCl, 5 mM CaCl2), 0.01% BSA, and 0.01% Surfactant P20. A separate solution containing 40 nM of the AlexaFluor tagged cyclic peptide was made in the same buffer system. An Echo was used to transfer 0.750 ul of compound to an assay plate followed by the addition of 15 ul of PCSK9+Stept-Eu and 15 ul of AF peptide. The final assay volume was 30.750 ul containing 0.5 nM PCSK9, 1.25 nM Strep-Eu, and 20 nM AF cyclic peptide. The reaction was incubated at room temperature for at least two hours prior to fluorescence measurements using an Envision Multilabel Reader. IC50 values were determined by fitting data to a sigmoidal dose-response curve using nonlinear regression. Ki was then calculated from the IC50 and the KD of AF cyclic peptide. Counts (B-counts) of the europium-labeled PCSK9 were followed to observe if compounds were […]. A fall off of the B-counts likely indicated a false positive of inhibition. Data from this procedure was reported as “A=‘numerical value’ (nanomolar)”

Chains of the proteins cited; added tags and fusions are not shown. Residues count along the entry.
UniProt Q8NBP7, 153-692: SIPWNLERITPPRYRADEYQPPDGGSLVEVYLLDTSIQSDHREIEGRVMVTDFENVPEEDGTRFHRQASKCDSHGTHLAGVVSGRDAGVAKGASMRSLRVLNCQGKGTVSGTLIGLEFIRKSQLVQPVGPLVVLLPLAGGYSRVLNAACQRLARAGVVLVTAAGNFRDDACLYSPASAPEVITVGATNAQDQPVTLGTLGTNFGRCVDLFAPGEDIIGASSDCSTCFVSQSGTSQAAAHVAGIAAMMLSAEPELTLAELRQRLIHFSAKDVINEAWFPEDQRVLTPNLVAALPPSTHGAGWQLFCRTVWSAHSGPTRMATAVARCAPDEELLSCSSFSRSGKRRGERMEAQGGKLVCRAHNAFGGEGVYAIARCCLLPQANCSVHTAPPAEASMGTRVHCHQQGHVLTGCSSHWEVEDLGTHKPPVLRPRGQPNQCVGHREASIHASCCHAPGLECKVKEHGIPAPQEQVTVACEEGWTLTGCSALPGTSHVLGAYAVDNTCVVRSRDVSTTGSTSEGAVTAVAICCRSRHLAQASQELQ

PCSK9 [2] = biological target: T1, PCSK9; experiment: PCSK9 Alexa FRET Plus assay (displacement of AlexaFluor647 tagged cyclic peptide Reagent B); type: binding; settings: 0.5 nM PCSK9, 960 nM AF cyclic peptide Reagent B
Procedure: A solution containing 1 nM biotinylated PCSK9+2.5 nM Lance Streptavidin Europium (Strep-Eu) was made in 50 mM HEPES pH 7.4, 0.15 M NaCl, 5 mM CaCl2), 0.01% BSA, and 0.01% Surfactant P20. A separate solution containing 1920 nM of the AlexaFluor tagged cyclic peptide was made in the same buffer system. An Echo was used to transfer 0.075 ul of compound plus 0.675 ul of DMSO to each well of an assay plate followed by the addition of 15 ul of PCSK9+Stept-Eu and 15 ul of AF peptide. The final assay volume was 30.750 ul containing 0.5 nM PCSK9, 1.25 nM Strep-Eu, and 960 nM AF cyclic peptide. The reaction was incubated at room temperature for at least two hours prior to fluorescence measurements using an Envision Multilabel Reader. IC50 values were determined by fitting data to a sigmoidal dose-response curve using nonlinear regression. Ki was then calculated from the IC50 and the KD of AF cyclic peptide. Counts (B-counts) of the europium-labeled PCSK9 were followed to observe if compounds were adversely affecting PCSK9. A fall off of the B-counts likely indicated a false positive of inhibition. Data from this procedure was reported as “P=‘numerical value’ (nanomolar)”

## CCCCCCCCCCCCCCCC(=O)N[C@@H](CCC(=O)NCCOCCOC(=O)NCCOCCOC(=O)NCCCC[C@@H]1NC(=O)[C@H](CC(=O)O)NC(=O)[C@H](Cc2c[nH]c3ccc(F)cc23)NC(=O)[C@H](Cc2c[nH]c3ccc(F)cc23)NC(=O)[C@@H](C)NC(=O)[C@H](CCCCN)NC(=O)CCSCc2cccc(c2)CSC[C@@H](C(N)=O)NC(=O)[C@]2(C)CCCN2C(=O)[C@H](Cc2ccc(O)cc2)NC1=O)C(=O)O [Compound 100] ([Mpa]K[dA][Trp(5-F)][Trp(5-F)]DK(X20)Y[αMeP]C-NH2; linker 1-10 via mXylylene)
PCSK9 [1]
  IC50: 0.11 to 100 nM
PCSK9 [2]
  IC50: 100 to 500 nM
